Measurements from doi:10.1101/2025.07.15.665015 (bioRxiv, 2025).
A weaker result is weaker than the reference pair of the same experiment.

Biological target: PKRΔRBD2 del100-176 (Homo sapiens) (UniProt P19525)
Experiment: single-molecule colocalization
Settings: shorter half-life than PKR; residues 1-551

GGGUAUCAUGGCGGACGACCGGGGUUCGAACCCCGGAUCCGGCCGUCCGCCGUGAUACCC [mini-VA]
binding result: binds more weakly
